The experiment has as its target murine TLR3, full length (mouse) (UniProt Q99MB1). Description: flow cytometry, surface staining of thioglycollate-elicited mouse peritoneal macrophages, Alexa-Fluor 647 conjugate. (Flow cytometry measures light scatter and fluorescence of single cells or particles in a stream.)

Protein sequences, listed by entry. Tags and fused reporters are not part of them. Lines headed by an entry give the natural chain unless they say otherwise; changes in a name come on top.
UniProt Q99MB1: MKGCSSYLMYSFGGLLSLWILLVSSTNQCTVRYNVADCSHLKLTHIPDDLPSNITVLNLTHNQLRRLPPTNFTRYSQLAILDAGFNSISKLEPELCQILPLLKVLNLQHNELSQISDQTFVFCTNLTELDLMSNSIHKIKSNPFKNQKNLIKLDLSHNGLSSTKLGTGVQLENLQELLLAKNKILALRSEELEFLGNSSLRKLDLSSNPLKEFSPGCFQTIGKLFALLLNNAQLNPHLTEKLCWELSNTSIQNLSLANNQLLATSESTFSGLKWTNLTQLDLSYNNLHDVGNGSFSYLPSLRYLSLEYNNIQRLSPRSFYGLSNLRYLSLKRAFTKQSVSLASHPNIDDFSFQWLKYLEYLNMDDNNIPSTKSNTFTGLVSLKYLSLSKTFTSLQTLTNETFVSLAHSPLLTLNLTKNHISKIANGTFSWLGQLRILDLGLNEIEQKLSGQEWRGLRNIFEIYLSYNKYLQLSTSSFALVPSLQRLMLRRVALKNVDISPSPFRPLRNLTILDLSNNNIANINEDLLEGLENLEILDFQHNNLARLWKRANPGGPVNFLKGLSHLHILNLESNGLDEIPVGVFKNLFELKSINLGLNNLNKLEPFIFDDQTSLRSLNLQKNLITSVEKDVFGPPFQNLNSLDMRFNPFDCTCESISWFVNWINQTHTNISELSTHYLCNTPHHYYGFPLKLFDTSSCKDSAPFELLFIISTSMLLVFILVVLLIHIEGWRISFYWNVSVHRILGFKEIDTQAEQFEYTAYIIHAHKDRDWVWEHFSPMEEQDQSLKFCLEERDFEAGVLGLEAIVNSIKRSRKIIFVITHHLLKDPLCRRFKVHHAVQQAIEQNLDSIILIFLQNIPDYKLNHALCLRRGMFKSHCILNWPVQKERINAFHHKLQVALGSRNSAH

No constants are given. Whether binding was seen depends on the method and setting. Some entries that bind do so weakly or less than the wild type.

B1: mAb c1811 (antibody, mouse IgG1, kappa, V domains shown)
VH: EVQLVASGGGLVKPGASLKLSCVASGFTFSDYWMAWVRQTPGKPMEYIGDIKSDGSKVNYAPSLKNRFTISRDNARTTLYLQMSNVRSEDTATYYCNRDIGPDWYFDFWGPGTMVTVSS
VL: DIQMTQSPTSLSASLGETVTIECRASEDIYNGLAWYQQKPGKSPQLLIYDSNSLHTGVPSRFSGRGSGTQYSLRINSLQSEDVASYFCQQYYDYPLTFGSGTKLEIKR
Consider B1, for which the binding entry is recorded as “binds”.

Source of the values: patent publication EP3020822A1.
